Data source: PubChem BioAssay AID1053208 (Peter MacCallum Cancer Centre, 2014)
The whole screen tested about 17,000 reagents; below is a random part of them. 788 of all reagents (4.7%) were called active. 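Calls rest on z-score classes alone; an extra cut-off of viability at most 70% of control was not applied to them.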 Unmarked entries are inactive. The numbers tell different reagents against one gene apart.

- Purpose: 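Synthetic lethal interactions between gene loss and doxorubicin in osteosarcoma cells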 (primary screen)
- Cell system: mouse osteosarcoma cells, early-passage culture from an engineered mouse model of fibroblastic bone tumour
- Knock-down reagent: siRNA pool against mouse genes, 40 nM
- Time to read-out: about 120 h (48 h before drug, then 72 h with drug)
- Challenge: doxorubicin 100 nM for 72 h, roughly 30-40% inhibitory dose
- Measured: 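Viability read as ATP luminescence after 72 h of 100 nM doxorubicin or none, duplicate wells averaged, scaled to non-targeting siRNA, then expressed as robust z-scores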
- Scale: viability z-score with doxorubicin and doxorubicin viability vs non-targeting: higher = more viable cells under doxorubicin; viability z-score without drug: higher = more viable cells with knock-down alone; z-score of drug to no-drug ratio: higher = less drug sensitisation by knock-down
- Rule for the call: 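Called active if knock-down leaves viability unchanged without drug (z within -2 to 2) but lowers it with doxorubicin (z at or under -2)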

| Target gene | pool no. | combined z-score class | viability z-score with doxorubicin | viability z-score without drug | z-score of drug to no-drug ratio | doxorubicin viability vs non-targeting |
| --- | --- | --- | --- | --- | --- | --- |
| Clcnkb (GeneID 56365) | 1 | no change with or without drug | -0.34 | -0.51 | 0.11 | 0.91 |
| Tmod3 (GeneID 50875) | 1 | no change with or without drug | -0.45 | -0.17 | -0.22 | 0.9 |
| Ubr7 (GeneID 66622) | 1 | no change with or without drug | -1.8 | 0.34 | -2.02 | 0.78 |
| Prdm8 (GeneID 77630) | 1 | no change with or without drug | 0.79 | -0.84 | 1.57 | 1.01 |
| Pde3b (GeneID 18576) | 1 | no change with or without drug | 0.11 | 1.35 | -0.67 | 0.95 |
| Coch (GeneID 12810) | 1 | no change with or without drug | -0.34 | -0.17 | -0.11 | 0.91 |
| Dppa1 (GeneID 347708) | 1 | no change with or without drug | 0.9 | 1.18 | 0.22 | 1.02 |
| Psmf1 (GeneID 228769) | 1 | no change with or without drug | 0.22 | 1.35 | -0.56 | 0.96 |
| Cacna1h (GeneID 58226) | 1 | no change with or without drug | 0.9 | -1.18 | 2.02 | 1.02 |
| Gprin3 (GeneID 243385) | 1 | no change with or without drug | -1.35 | 0.17 | -1.46 | 0.82 |
| Kiss1 (GeneID 280287) | 1 | no change with or without drug | -0.22 | 0.67 | -0.56 | 0.92 |
| Adgrb3 (GeneID 210933) | 1 | no change with or without drug | -0.11 | 0.84 | -0.56 | 0.93 |
| Ormdl3 (GeneID 66612) | 1 | no change with or without drug | -0.11 | -1.52 | 1.12 | 0.93 |
| Klhl26 (GeneID 234378) | 1 | no change with or without drug | 0.9 | 1.85 | -0.22 | 1.02 |
| Ppp1r14a (GeneID 68458) | 1 | no change with or without drug | 0.9 | 0.51 | 0.67 | 1.02 |
| Eif4a2 (GeneID 13682) | 1 | no change with or without drug | -0.9 | 0 | -0.79 | 0.86 |
| Shpk (GeneID 74637) | 1 | no change with or without drug | 0 | 0.51 | -0.22 | 0.94 |
| Agtrap (GeneID 11610) | 1 | no change with or without drug | -0.9 | 0.84 | -1.35 | 0.86 |
| H4c14 (GeneID 97122) | 1 | no change with or without drug | -0.9 | -1.18 | 0 | 0.86 |
| Or51ac3 (GeneID 259103) | 1 | no change with or without drug | -1.35 | -1.35 | -0.45 | 0.82 |
| Mien1 (GeneID 103742) | 1 | no change with or without drug | -1.01 | -0.84 | -0.45 | 0.85 |
| Radx (GeneID 102871) | 1 | no change with or without drug | 0.34 | 0.17 | 0.34 | 0.97 |
| Fgf16 (GeneID 80903) | 1 | no change with or without drug | -0.11 | -0.17 | 0.11 | 0.93 |
| Usp21 (GeneID 30941) | 1 | no change with or without drug | 0.11 | 0.51 | -0.11 | 0.95 |
| Dph2 (GeneID 67728) | 1 | no change with or without drug | 1.12 | 0.51 | 0.9 | 1.04 |
| Dok1 (GeneID 13448) | 1 | high cell count with doxorubicin only | 2.47 | 1.01 | 1.91 | 1.16 |
| Vwc2 (GeneID 319922) | 1 | no change with or without drug | 0 | 1.35 | -0.79 | 0.94 |
| Lysmd4 (GeneID 75099) | 1 | no change with or without drug | -0.11 | -0.51 | 0.34 | 0.93 |
| Osbpl10 (GeneID 74486) | 1 | no change with or without drug | -1.35 | -0.51 | -1.01 | 0.82 |
| Osbpl10 (GeneID 74486) | 2 | no change with or without drug | -1.57 | -1.18 | -0.79 | 0.8 |
| Ptger4 (GeneID 19219) | 1 | no change with or without drug | 0.56 | -0.67 | 1.24 | 0.99 |
| Wfdc12 (GeneID 192200) | 1 | low cell count without drug only | -1.91 | -2.36 | -0.34 | 0.77 |
| Erich5 (GeneID 239368) | 1 | no change with or without drug | -0.45 | -0.51 | 0 | 0.9 |
| Mcpt8 (GeneID 17231) | 1 | no change with or without drug | 0.67 | 0.84 | 0.22 | 1 |
| Tlx2 (GeneID 21909) | 1 | no change with or without drug | -0.45 | 1.01 | -1.01 | 0.9 |
| Creb3 (GeneID 12913) | 1 | no change with or without drug | -0.9 | -0.17 | -0.79 | 0.86 |
| Il3ra (GeneID 16188) | 1 | low cell count without drug only | -1.57 | -2.19 | 0 | 0.8 |
| Or8k24 (GeneID 258386) | 1 | no change with or without drug | -1.69 | -1.52 | -0.67 | 0.79 |
| Hpca (GeneID 15444) | 1 | no change with or without drug | -0.22 | 1.35 | -1.01 | 0.92 |
| Cd209e (GeneID 170780) | 1 | no change with or without drug | 0 | 1.85 | -1.01 | 0.94 |
| Arfgef1 (GeneID 211673) | 1 | no change with or without drug | 0.79 | -0.17 | 1.01 | 1.01 |
| Ppcdc (GeneID 66812) | 1 | no change with or without drug | 1.12 | 0.51 | 0.9 | 1.04 |
| Orc3 (GeneID 50793) | 1 | no change with or without drug | -0.56 | 0.51 | -0.79 | 0.89 |
| Noc2l (GeneID 57741) | 1 | no change with or without drug | -0.9 | -1.35 | 0.11 | 0.86 |
| 2900026A02Rik (GeneID 243219) | 1 | no change with or without drug | 0.67 | 0 | 0.79 | 1 |
| Aox4 (GeneID 71872) | 1 | no change with or without drug | 0 | 0.51 | -0.22 | 0.94 |
| Tmem45a2 (GeneID 69457) | 1 | no change with or without drug | -0.45 | 1.52 | -1.24 | 0.9 |
| Sap30 (GeneID 60406) | 1 | no change with or without drug | 0.9 | 0.84 | 0.45 | 1.02 |
| Ppp1r11 (GeneID 76497) | 1 | no change with or without drug | 0.56 | -0.84 | 1.35 | 0.99 |
| Or11g24 (GeneID 258663) | 1 | no change with or without drug | 0.45 | -0.17 | 0.67 | 0.98 |
| Tmem35a (GeneID 67564) | 1 | no change with or without drug | -0.22 | -0.17 | 0 | 0.92 |
| Prkg2 (GeneID 19092) | 1 | high cell count with doxorubicin only | 2.25 | -1.35 | 3.71 | 1.14 |
| Kif20a (GeneID 19348) | 1 | no change with or without drug | -0.79 | -0.51 | -0.34 | 0.87 |
| Or6c205 (GeneID 258538) | 1 | no change with or without drug | -0.9 | -0.84 | -0.22 | 0.86 |
| Or6c205 (GeneID 258538) | 2 | high cell count without drug only | 1.57 | 2.36 | 0.11 | 1.08 |
| Plppr3 (GeneID 216152) | 1 | no change with or without drug | -0.45 | 1.18 | -1.12 | 0.9 |
| Npepl1 (GeneID 228961) | 1 | no change with or without drug | -0.34 | -0.51 | 0.11 | 0.91 |
| Pnpo (GeneID 103711) | 1 | no change with or without drug | 0.67 | 0.84 | 0.22 | 1 |
| Ahnak (GeneID 66395) | 1 | no change with or without drug | -1.35 | -0.17 | -1.24 | 0.82 |
| Hsd3b1 (GeneID 15492) | 1 | no change with or without drug | -0.45 | 0.51 | -0.67 | 0.9 |
| Ackr2 (GeneID 59289) | 1 | no change with or without drug | 0.67 | -0.17 | 0.9 | 1 |
| 5330426L24Rik (GeneID 78285) | 1 | no change with or without drug | -1.12 | 0.17 | -1.12 | 0.84 |
| 9930022D16Rik (GeneID 320509) | 1 | no change with or without drug | 0.11 | 0.17 | 0.11 | 0.95 |

11 of these entries, reformatted.
Target gene,pool no.,combined z-score class,viability z-score with doxorubicin,viability z-score without drug,z-score of drug to no-drug ratio,doxorubicin viability vs non-targeting
Usp21 (GeneID 30941),1,no change with or without drug,0.11,0.51,-0.11,0.95
Dph2 (GeneID 67728),1,no change with or without drug,1.12,0.51,0.9,1.04
Dok1 (GeneID 13448),1,high cell count with doxorubicin only,2.47,1.01,1.91,1.16
Vwc2 (GeneID 319922),1,no change with or without drug,0,1.35,-0.79,0.94
Lysmd4 (GeneID 75099),1,no change with or without drug,-0.11,-0.51,0.34,0.93
Osbpl10 (GeneID 74486),1,no change with or without drug,-1.35,-0.51,-1.01,0.82
Osbpl10 (GeneID 74486),2,no change with or without drug,-1.57,-1.18,-0.79,0.8
Ptger4 (GeneID 19219),1,no change with or without drug,0.56,-0.67,1.24,0.99
Wfdc12 (GeneID 192200),1,low cell count without drug only,-1.91,-2.36,-0.34,0.77
Erich5 (GeneID 239368),1,no change with or without drug,-0.45,-0.51,0,0.9
Mcpt8 (GeneID 17231),1,no change with or without drug,0.67,0.84,0.22,1
